According to US4804664A, “Method and pharmaceutical preparation for treating chronic obstructive airway disease and cardiac disease, and intermediates for the preparation of therapeutically active xanthine derivatives” (priority 1978, dated 1989):

These compounds were tested on Guinea-Pig Trachea (assay: Relation between therapeutic ratios (bronchodilator dose : toxic dose) for theophylline and each compound). Conditions: theophylline = 1; ( ) denotes onesided 95% confidence interval.
`CCCn1c(=O)[nH]c(=O)c2[nH]cnc21` [D 4028, 3,7-dihydro-3-propyl-1H-purine-2,6-dione] was tested, and the “relation between therapeutic ratios for theophylline and each compound, onesided 95% confidence bound” value was ≥ 2.1.
For `CC(C)Cn1c(=O)[nH]c(=O)c2[nH]cnc21` [D 4030, 3,7-dihydro-3-(2-methylpropyl)-1H-purine-2,6-dione], the “relation between therapeutic ratios for theophylline and each compound, onesided 95% confidence bound” value was ≥ 1.3.
For `CCCCn1c(=O)[nH]c(=O)c2[nH]cnc21` [D 4031, 3-butyl-3,7-dihydro-1H-purine-2,6-dione], the “relation between therapeutic ratios for theophylline and each compound, onesided 95% confidence bound” value was ≥ 1.5.
